Reference: publication PMC4852461, “A closed conformation of the Caenorhabditis elegans separase–securin complex” (Open Biology, 2016)
Results are given in words; binding and its absence hold for the method and conditions named. For some of these results: In cells and extracts the contact can be indirect. Some entries that bind do so weakly or less than the wild type. Sequences can lack the tags named with a protein.

Legend:
[1] = biological target: T1, His6-tagged full-length C. elegans separase (C. elegans) (UniProt G5ED39); assay: SEC; full-length separase co-expressed and purified with securin from Sf9 cells; fractions analysed by SDS-PAGE; Superdex 200 16/60 or Superose 6 10/300 in Tris or phosphate buffer; both purified
T1 sequence: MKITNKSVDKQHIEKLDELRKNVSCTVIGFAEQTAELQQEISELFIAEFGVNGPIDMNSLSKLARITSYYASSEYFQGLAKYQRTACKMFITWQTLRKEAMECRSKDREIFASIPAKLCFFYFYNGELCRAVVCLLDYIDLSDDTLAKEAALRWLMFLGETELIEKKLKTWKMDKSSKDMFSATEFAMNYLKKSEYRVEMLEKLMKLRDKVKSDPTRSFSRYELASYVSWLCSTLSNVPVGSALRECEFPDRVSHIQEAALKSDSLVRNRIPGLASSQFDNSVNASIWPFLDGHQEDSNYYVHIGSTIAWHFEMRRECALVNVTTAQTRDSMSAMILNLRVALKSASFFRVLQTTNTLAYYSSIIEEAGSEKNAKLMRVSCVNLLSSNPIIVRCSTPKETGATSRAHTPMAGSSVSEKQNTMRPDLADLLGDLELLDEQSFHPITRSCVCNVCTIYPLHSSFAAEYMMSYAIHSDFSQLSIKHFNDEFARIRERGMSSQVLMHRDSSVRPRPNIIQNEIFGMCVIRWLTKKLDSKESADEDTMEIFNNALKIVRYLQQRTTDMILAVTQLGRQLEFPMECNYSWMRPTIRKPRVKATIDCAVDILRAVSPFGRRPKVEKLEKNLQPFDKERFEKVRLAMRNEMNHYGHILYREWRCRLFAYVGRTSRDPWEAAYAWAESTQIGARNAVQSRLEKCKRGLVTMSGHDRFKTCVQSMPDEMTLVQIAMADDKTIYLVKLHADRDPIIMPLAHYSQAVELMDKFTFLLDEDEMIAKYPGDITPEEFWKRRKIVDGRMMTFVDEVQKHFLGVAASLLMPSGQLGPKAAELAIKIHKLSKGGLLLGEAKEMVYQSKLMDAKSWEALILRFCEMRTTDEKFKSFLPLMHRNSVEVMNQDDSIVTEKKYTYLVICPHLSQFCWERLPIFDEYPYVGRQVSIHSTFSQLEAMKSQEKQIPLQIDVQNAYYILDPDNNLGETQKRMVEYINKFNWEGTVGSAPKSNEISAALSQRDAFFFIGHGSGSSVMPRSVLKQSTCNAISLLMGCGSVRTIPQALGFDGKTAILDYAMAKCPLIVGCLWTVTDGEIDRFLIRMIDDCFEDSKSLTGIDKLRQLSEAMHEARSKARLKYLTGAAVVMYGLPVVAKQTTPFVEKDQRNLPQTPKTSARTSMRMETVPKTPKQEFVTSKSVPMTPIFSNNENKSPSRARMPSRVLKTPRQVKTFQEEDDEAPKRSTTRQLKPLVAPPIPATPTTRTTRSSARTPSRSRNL

[2] = biological target: T2, strep II-tagged full-length C. elegans separase (C. elegans) (UniProt G5ED39); assay: negative-stain electron microscopy, single particle reconstruction; purified full-length separase-securin complex on carbon-coated grids, 2% w/v uranyl acetate; map at about 21-24 Å; both purified
T2 sequence: T1 sequence

[3] = biological target: T3, StrepII-tagged C. elegans separase (aa 1–1140) (C. elegans) (UniProt G5ED39); assay: pull-down; separase 1-1140 and securin or its fragments co-expressed in Sf9 cells for 72 h; soluble lysate incubated with StrepTactin resin 1 h at 4°C to bind StrepII-separase, washed four times in PBS; SDS-PAGE and Western blot
T3 sequence: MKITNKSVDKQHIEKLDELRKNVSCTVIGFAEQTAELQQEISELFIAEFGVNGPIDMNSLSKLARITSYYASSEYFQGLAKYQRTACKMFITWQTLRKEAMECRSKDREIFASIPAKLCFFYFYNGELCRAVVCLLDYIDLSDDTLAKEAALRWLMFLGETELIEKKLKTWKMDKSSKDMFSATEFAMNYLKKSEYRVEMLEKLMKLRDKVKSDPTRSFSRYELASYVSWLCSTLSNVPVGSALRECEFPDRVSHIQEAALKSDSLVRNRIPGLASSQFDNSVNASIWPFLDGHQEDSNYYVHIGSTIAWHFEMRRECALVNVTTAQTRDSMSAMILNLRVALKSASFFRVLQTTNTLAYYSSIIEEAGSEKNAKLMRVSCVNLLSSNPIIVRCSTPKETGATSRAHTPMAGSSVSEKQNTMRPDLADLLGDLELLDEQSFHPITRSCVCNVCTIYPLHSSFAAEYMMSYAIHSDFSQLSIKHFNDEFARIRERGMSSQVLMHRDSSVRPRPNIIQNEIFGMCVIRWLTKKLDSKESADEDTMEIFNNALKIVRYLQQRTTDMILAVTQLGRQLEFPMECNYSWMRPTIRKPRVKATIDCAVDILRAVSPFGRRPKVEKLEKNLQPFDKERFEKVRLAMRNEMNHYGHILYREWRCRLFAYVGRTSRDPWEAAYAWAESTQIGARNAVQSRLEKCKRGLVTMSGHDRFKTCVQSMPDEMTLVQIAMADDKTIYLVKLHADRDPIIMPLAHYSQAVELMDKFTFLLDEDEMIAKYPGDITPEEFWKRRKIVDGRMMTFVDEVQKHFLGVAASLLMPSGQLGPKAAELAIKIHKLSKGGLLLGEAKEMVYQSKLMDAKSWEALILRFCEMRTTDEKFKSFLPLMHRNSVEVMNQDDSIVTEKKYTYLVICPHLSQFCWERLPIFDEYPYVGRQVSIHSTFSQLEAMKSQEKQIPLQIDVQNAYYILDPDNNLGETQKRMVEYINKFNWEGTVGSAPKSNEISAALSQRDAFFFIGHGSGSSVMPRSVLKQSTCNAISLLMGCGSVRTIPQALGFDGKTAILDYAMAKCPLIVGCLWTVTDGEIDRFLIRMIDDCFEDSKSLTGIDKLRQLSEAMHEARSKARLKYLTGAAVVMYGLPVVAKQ

B1: His6-tagged C. elegans securin (protein, UniProt Q18235 1-244)
chain: MEDLNFEERGSTQIPASLQQHFSAKLGRQNELEKTPSRGGLGLVVNSSKTPGGKSLQSLASACKVPPSTKKNTIPIAFECYEDETDDQIADVATIKKTEKHPCSPIDTANRCETFDSLAADIEDDMLNLEDQDVVLSEDRPYGDVIDPAESEAEALAELGVEEWDSYPPIDPASRIGDDFNYVLRTEDFAEEGDVKLEETRHRTVIADIDEVKMSKAERNELFSMLADDLDSYDLLAEEANLPL
binding [1]: binds

B2: full-length C. elegans securin (co-expressed with StrepII-tagged separase) (natural protein, UniProt Q18235 1-244, looked up)
chain: B1 chain
notes: it may be the same construct as m2; also called securin FL; source: Sf9 insect cells, co-expressed with StrepII-separase; in soluble lysate (pull-down) and purified as complex (StrepTactin, SEC)
binding [2]: binds
binding [3]: binds

B3: C. elegans securin fragment 77–244 (domain or fragment, UniProt Q18235 77-244)
chain: AFECYEDETDDQIADVATIKKTEKHPCSPIDTANRCETFDSLAADIEDDMLNLEDQDVVLSEDRPYGDVIDPAESEAEALAELGVEEWDSYPPIDPASRIGDDFNYVLRTEDFAEEGDVKLEETRHRTVIADIDEVKMSKAERNELFSMLADDLDSYDLLAEEANLPL
binding [3]: binds
